Laboratory results as given in patent US10040806B2, “Microbiocidally active benzoxaboroles” (Syngenta Participations AG, priority 2014, dated 2018).
Read-outs that look alike come from different tables or passages of the source. Some of these results come from one statement about several compounds together. At least one structure is not confirmed: it was looked up by name or label, or the drawing left a doubt.

Tests used:
[1] = tested on: Pythium ultimum; assay: Pythium ultimum/liquid culture (seedling damping off); format: cell-based; conditions: 20 ppm; liquid culture, potato dextrose broth; inhibition of growth determined photometrically 2-3 days after application
[2] = tested on: Fusarium culmorum; format: cell-based; conditions: 20 ppm
[3] = tested on: Monographella nivalis (Microdochium nivale); assay: Monographella nivalis (Microdochium nivale)/liquid culture (foot rot cereals); format: cell-based; conditions: 20 ppm; liquid culture, PDB; inhibition of growth determined photometrically 4-5 days after application
[4] = tested on: Sclerotinia sclerotiorum; assay: Sclerotinia sclerotiorum/liquid culture (cottony rot); conditions: 20 ppm; liquid culture, PDB; inhibition of growth determined visually 3-4 days after application
[5] = tested on: Glomerella lagenarium (Colletotrichum lagenarium); assay: Glomerella lagenarium (Colletotrichum lagenarium)/liquid culture (anthracnose); format: cell-based; conditions: 20 ppm; liquid culture, PDB; inhibition of growth measured photometrically 3-4 days after application
[6] = tested on: Mycosphaerella arachidis (Cercospora arachidicola); assay: Mycosphaerella arachidis (Cercospora arachidicola)/liquid culture (early leaf spot); format: cell-based; conditions: 20 ppm; liquid culture, PDB; inhibition of growth determined photometrically 4-5 days after application
[7] = tested on: Gaeumannomyces graminis; assay: Gaeumannomyces graminis/liquid culture (take-all of cereals); format: cell-based; conditions: 20 ppm; liquid culture, PDB; inhibition of growth determined photometrically 4-5 days after application
[8] = tested on: Thanatephorus cucumeris (Rhizoctonia solani); conditions: 20 ppm; liquid culture, PDB; inhibition of growth determined photometrically 3-4 days after application
[9] = tested on: Mycosphaerella graminicola (Septoria tritici); assay: Mycosphaerella graminicola (Septoria tritici)/liquid culture (Septoria blotch); format: cell-based; conditions: 20 ppm; liquid culture, PDB; inhibition of growth determined photometrically 4-5 days after application
[10] = liquid culture, PDB, inhibition of growth determined visually 3-4 days after application

| SMILES | disease control [1] | disease control [3] | other results |
| --- | --- | --- | --- |
| COCC(Oc1cc2c(cc1F)COB2O)C(=O)OC (racemic) [Compound 58] | at least 80% |  |  |
| CC(C#N)Oc1cc2c(cc1F)COB2O (racemic) [Compound 59] | at least 80% | at least 80% | disease control [2]: at least 80%; disease control [4]: at least 80%; disease control [5]: at least 80%; disease control [6]: at least 80%; disease control [7]: at least 80% |
| OB1OCc2cc(F)c(OCC3CCO3)cc21 (racemic) [Compound 72] | at least 80% |  |  |
| OB1OCc2cc3c(cc21)OC(F)(F)O3 [Compound 1] |  |  | disease control [2, 10]: at least 80% |
| CCOc1cc2c(cc1Cl)COB2O [Compound 9, 5-chloro-6-ethoxy-1-hydroxy-3H-2,1-benzoxaborole] |  |  | disease control [2, 10]: at least 80% |
| COC(=O)Oc1cc2c(cc1Cl)COB2O [Compound 11] | at least 80% | at least 80% | disease control [4]: at least 80%; disease control [6]: at least 80%; disease control [8]: at least 80%; disease control [9]: at least 80%; disease control [7]: at least 80% |
| OB1OCc2ccc(O)c(Cl)c21 [Compound 13] | at least 80% | at least 80% | disease control [4]: at least 80%; disease control [6]: at least 80%; disease control [8]: at least 80%; disease control [9]: at least 80%; disease control [7]: at least 80% |
| COc1cc2c(cc1[N+](=O)[O-])COB2O [Compound 14] | at least 80% | at least 80% | disease control [8]: at least 80% |
| O=S(=O)(Oc1cc2c(cc1Cl)COB2O)C(F)(F)F [Compound 18] | at least 80% | at least 80% | disease control [5]: at least 80%; disease control [6]: at least 80%; disease control [8]: at least 80%; disease control [9]: at least 80% |
| CS(=O)(=O)Oc1cc2c(cc1Cl)COB2O [Compound 19] | at least 80% | at least 80% |  |
| O=C(Oc1cc2c(cc1Cl)COB2O)c1ccc(F)cc1 [Compound 23] | at least 80% | at least 80% | disease control [5]: at least 80% |
| COc1ccc(C(=O)Oc2cc3c(cc2Cl)COB3O)cc1 [Compound 24] | at least 80% | at least 80% | disease control [5]: at least 80% |
| OB1OCc2cc(F)c(O)cc21 [Compound 25] | at least 80% | at least 80% |  |
| O=C(Cc1ccc(F)cc1)Oc1cc2c(cc1Cl)COB2O [Compound 27] | at least 80% | at least 80% | disease control [6]: at least 80% |
| OB1OCc2cc(Cl)c(OCc3ccsc3)cc21 [Compound 29] |  | at least 80% | disease control [5]: at least 80%; disease control [9]: at least 80% |
| CC(=O)Oc1cc2c(cc1F)COB2O [Compound 33] | at least 80% | at least 80% | disease control [2]: at least 80%; disease control [4]: at least 80%; disease control [5]: at least 80%; disease control [9]: at least 80%; disease control [7]: at least 80% |
| OB1OCc2ccc(O)c(F)c21 [Compound 35] | at least 80% | at least 80% | disease control [6]: at least 80% |
| OB1OCc2cc(F)c(OCC(F)F)cc21 [Compound 36] | at least 80% | at least 80% | disease control [4]: at least 80%; disease control [7]: at least 80% |
| CCOc1cc2c(cc1C)COB2O [Compound 38, 6-ethoxy-1-hydroxy-5-methyl-3H-2,1-benzoxaborole] |  |  | disease control [2, 10]: at least 80% |
| COCOCCOc1cc2c(cc1F)COB2O [Compound 40] | at least 80% |  |  |
| CCOC(=O)CCCOc1cc2c(cc1F)COB2O [Compound 42] | at least 80% |  |  |
| OB1OCc2cc(F)c(OC3CCOCC3)cc21 [Compound 45] | at least 80% |  |  |
| COC(=O)C(Oc1cc2c(cc1F)COB2O)C(=O)OC [Compound 46] | at least 80% |  |  |
| CCOC(=O)C(C)Oc1cc2c(cc1F)COB2O (stereo not drawn) [Compound 48] | at least 80% |  | disease control [2]: at least 80%; disease control [4]: at least 80% |
| COCCOCCOc1cc2c(cc1F)COB2O [Compound 49] | at least 80% |  | disease control [6]: at least 80% |
| N#CCCCOc1cc2c(cc1F)COB2O [Compound 51] | at least 80% |  |  |
| COCCOc1cc2c(cc1F)COB2O [Compound 52] | at least 80% | at least 80% | disease control [4]: at least 80% |

| SMILES | disease control [1] | disease control [3] | other results |
| --- | --- | --- | --- |
| COCCOC(=O)COc1cc2c(cc1F)COB2O [Compound 53] | at least 80% |  |  |
| CCO/N=C/C(C)Oc1cc2c(cc1F)COB2O (stereo not drawn) [Compound 54] | at least 80% |  | disease control [5]: at least 80%; disease control [7]: at least 80% |
| C=CCOCC(C)OC(=O)COc1cc2c(cc1F)COB2O (stereo not drawn) [Compound 55] | at least 80% |  |  |
| CCOCCOC(=O)C(C)Oc1cc2c(cc1F)COB2O (stereo not drawn) [Compound 56] | at least 80% |  |  |
| CS(=O)(=O)OCCOc1cc2c(cc1F)COB2O [Compound 57] | at least 80% |  |  |
| CCOC(=O)/C=C/COc1cc2c(cc1F)COB2O [Compound 60] | at least 80% | at least 80% | disease control [5]: at least 80%; disease control [8]: at least 80%; disease control [7]: at least 80% |
| CCOC(=O)COc1cc2c(cc1F)COB2O [Compound 61] | at least 80% |  | disease control [8]: at least 80% |
| OB1OCc2cc(F)c(OCCCF)cc21 [Compound 63] | at least 80% | at least 80% | disease control [7]: at least 80% |
| OB1OCc2cc(F)c(OCCC3OCCCO3)cc21 [Compound 64] | at least 80% |  |  |
| OB1OCc2cc(F)c(OCCCCl)cc21 [Compound 65] | at least 80% | at least 80% |  |
| OB1OCc2cc(F)c(OCCCl)cc21 [Compound 66] | at least 80% | at least 80% | disease control [5]: at least 80%; disease control [6]: at least 80%; disease control [7]: at least 80% |
| CC(C)OC(=O)COc1cc2c(cc1F)COB2O [Compound 67] | at least 80% |  |  |
| CCOC(=O)C(Oc1cc2c(cc1F)COB2O)C(=O)OCC [Compound 68] | at least 80% |  |  |
| COCCCCOc1cc2c(cc1F)COB2O [Compound 69] | at least 80% |  |  |
| OB1OCc2cc(F)c(OCCCCC3OCCO3)cc21 [Compound 70] | at least 80% |  |  |
| Cc1nn(C)nc1COc1cc2c(cc1F)COB2O [Compound 71] | at least 80% |  |  |
| CCOC(=O)C(=O)COc1cc2c(cc1F)COB2O [Compound 73] | at least 80% |  |  |
| CCOCCOc1cc2c(cc1F)COB2O [Compound 74] | at least 80% | at least 80% | disease control [2]: at least 80%; disease control [4]: at least 80%; disease control [5]: at least 80%; disease control [6]: at least 80%; disease control [7]: at least 80% |
| OB1OCc2cc(F)c(OCCF)cc21 [Compound 75] | at least 80% |  | disease control [4]: at least 80%; disease control [6]: at least 80%; disease control [7]: at least 80% |
| COCOCCOc1cc2c(cc1Cl)COB2O [Compound 78] | at least 80% |  |  |
| COC(=O)C(Oc1cc2c(cc1Cl)COB2O)C(=O)OC [Compound 81] | at least 80% |  | disease control [7]: at least 80% |
| COCCOc1cc2c(cc1Cl)COB2O [Compound 83] | at least 80% | at least 80% | disease control [5]: at least 80%; disease control [6]: at least 80%; disease control [7]: at least 80% |
| OB1OCc2cc(Cl)c(OCCC3OCCCO3)cc21 [Compound 88] | at least 80% | at least 80% |  |
| Cc1nn(C)nc1COc1cc2c(cc1Cl)COB2O [Compound 92] | at least 80% |  |  |
| CS(=O)(=O)OCCOc1cc2c(cc1Cl)COB2O [Compound 93] | at least 80% |  |  |
| OB1OCc2cc(Cl)c(O)c(Br)c21 [Compound 97] | at least 80% | at least 80% | disease control [6]: at least 80%; disease control [9]: at least 80%; disease control [7]: at least 80% |
| OB1OCc2cc(Cl)cc(O)c21 [Compound 105] | at least 80% | at least 80% | disease control [2]: at least 80%; disease control [4]: at least 80%; disease control [5]: at least 80%; disease control [6]: at least 80%; disease control [9]: at least 80% |
